# Assay results published in the supplement of paper PMC8728848.
# The other results are listed elsewhere or left out.
# B1: GS7807F-bth-514-18-514 (Bacteroides thetaiotaomicron) (protein)
# chain: AGSCTGNFEEYNTNQFQIHEADPSTLMKSMIETIVNIQQNDSQMMDQMVGQLGGYLTCANVWSGTNFGTFNQSDAWNAGPWNTNFEKIYGNFFQIQEATNESGHYYAFARMIRAITMLRVADCYGPMPYSQVKKGNFYVAYDTEEQVYKNIMEDFASAANVLYNYYKDTNGNAPLASNDPVFSGNYANWARLANSMRLRVAIRISTAYPEMAKENAEAAASHEAGLIEANNDNAMMDCGSQTNPYQLAAVSWGDLRVNANIVDYMNGYGDPRMSKYFNHSTFTGHTQEYVGMRSGEDGFAKSDVAGYSIPAITGTSKLLVFCAAETAFLRAEGKLKNWSVGNKSAKEYYEEGIKLSMEQYGTTMPDNYLTNTEKPTVSHNNDPRGHAYTISNTVAVAWNDNNEEENLQRIITQKWIANYPLGLEAWAEYRRTGYPELYPCIDNLSPSGVDSKRGMRRLRFPYTEVQNNHSNYQQGVSYLKNGGPDNEATDLSWGKTN
# How the values were obtained:
# Assay in all cases: glycan array binding signal (z-score within array); higher = stronger binding
# Conditions in all cases: glycan notation: IUPAC condensed, linker removed
# Gal(b1-4)Glc = target: Gal(b1-4)Glc
# How it was run: (§1)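 Glycan array data came from 3228 arrays in the Consortium for Functional Glycomics database, and only arrays with an available protein sequence were kept. Glycan names were put into IUPAC-condensed notation, and columns mapping to the same glycan were averaged. The binding signal is a within-array Z-score, averaged across arrays of one protein sequence run at different concentrations or buffers and across linkers. A negative Z-score can be read as non-binding.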
# Gal(b1-4)Glc6S = target: Gal(b1-4)Glc6S
# How it was run: as §1
# Gal(b1-4)GlcNAc = target: Gal(b1-4)GlcNAc
# How it was run: as §1
# [1] = target: Gal(b1-4)GlcNAc(a1-6)Gal(b1-4)GlcNAc
# How it was run: as §1
# Gal(b1-4)GlcNAc(b1-2)Man = target: Gal(b1-4)GlcNAc(b1-2)Man
# How it was run: as §1
# [2] = target: Gal(b1-4)GlcNAc(b1-2)Man(a1-3)Man(b1-4)GlcNAc(b1-4)GlcNAc
# How it was run: as §1
# [3] = target: Gal(b1-4)GlcNAc(b1-2)Man(a1-3)[Gal(b1-4)GlcNAc(b1-2)Man(a1-6)]Man(b1-4)GlcNAc(b1-4)GlcNAc
# How it was run: as §1
# [4] = target: Gal(b1-4)GlcNAc(b1-2)Man(a1-3)[Gal(b1-4)GlcNAc(b1-2)Man(a1-6)]Man(b1-4)GlcNAc(b1-4)[Fuc(a1-6)]GlcNAc
# How it was run: as §1
# [5] = target: Gal(b1-4)GlcNAc(b1-2)Man(a1-3)[Gal(b1-4)GlcNAc(b1-2)Man(a1-6)][Gal(b1-4)GlcNAc(b1-4)]Man(b1-4)GlcNAc(b1-4)[Fuc(a1-6)]GlcNAc
# How it was run: as §1
# [6] = target: Gal(b1-4)GlcNAc(b1-2)Man(a1-3)[Gal(b1-4)GlcNAc(b1-2)Man(a1-6)][GlcNAc(b1-4)]Man(b1-4)GlcNAc(b1-4)[Fuc(a1-6)]GlcNAc
# How it was run: as §1
# [7] = target: Gal(b1-4)GlcNAc(b1-2)Man(a1-3)[GlcNAc(b1-2)Man(a1-6)]Man(b1-4)GlcNAc(b1-4)GlcNAc
# How it was run: as §1
# [8] = target: Gal(b1-4)GlcNAc(b1-2)Man(a1-3)[GlcNAc(b1-4)][Gal(b1-4)GlcNAc(b1-2)Man(a1-6)]Man(b1-4)GlcNAc(b1-4)GlcNAc
# How it was run: as §1
# [9] = target: Gal(b1-4)GlcNAc(b1-2)Man(a1-3)[Man(a1-6)]Man(b1-4)GlcNAc(b1-4)GlcNAc
# How it was run: as §1
# [10] = target: Gal(b1-4)GlcNAc(b1-2)Man(a1-6)Man(b1-4)GlcNAc(b1-4)GlcNAc
# How it was run: as §1
# [11] = target: Gal(b1-4)GlcNAc(b1-2)Man(a1-6)[GlcNAc(b1-2)Man(a1-3)]Man(b1-4)GlcNAc(b1-4)GlcNAc
# How it was run: as §1
# [12] = target: Gal(b1-4)GlcNAc(b1-2)Man(a1-6)[Man(a1-3)]Man(b1-4)GlcNAc(b1-4)GlcNAc
# How it was run: as §1
# [13] = target: Gal(b1-4)GlcNAc(b1-2)[Gal(b1-4)GlcNAc(b1-4)]Man(a1-3)[Gal(b1-4)GlcNAc(b1-2)Man(a1-6)]Man(b1-4)GlcNAc(b1-4)GlcNAc
# How it was run: as §1
# [14] = target: Gal(b1-4)GlcNAc(b1-2)[Gal(b1-4)GlcNAc(b1-4)]Man(a1-3)[Gal(b1-4)GlcNAc(b1-2)[Gal(b1-4)GlcNAc(b1-6)]Man(a1-6)]Man(b1-4)GlcNAc(b1-4)GlcNAc
# How it was run: as §1
# [15] = target: Gal(b1-4)GlcNAc(b1-2)[Gal(b1-4)GlcNAc(b1-4)]Man(a1-3)[GlcNAc(b1-4)][Gal(b1-4)GlcNAc(b1-2)Man(a1-6)]Man(b1-4)GlcNAc(b1-4)GlcNAc
# How it was run: as §1
# [16] = target: Gal(b1-4)GlcNAc(b1-2)[Gal(b1-4)GlcNAc(b1-4)]Man(a1-3)[GlcNAc(b1-4)][Gal(b1-4)GlcNAc(b1-2)[Gal(b1-4)GlcNAc(b1-6)]Man(a1-6)]Man(b1-4)GlcNAc(b1-4)GlcNAc
# How it was run: as §1
# [17] = target: Gal(b1-4)GlcNAc(b1-2)[Gal(b1-4)GlcNAc(b1-6)]Man(a1-6)[Gal(b1-4)GlcNAc(b1-2)Man(a1-3)]Man(b1-4)GlcNAc(b1-4)GlcNAc
# How it was run: as §1
# [18] = target: Gal(b1-4)GlcNAc(b1-2)[Gal(b1-4)GlcNAc(b1-6)]Man(a1-6)[Gal(b1-4)GlcNAc(b1-2)Man(a1-3)]Man(b1-4)GlcNAc(b1-4)[Fuc(a1-6)]GlcNAc
# How it was run: as §1
# [19] = target: Gal(b1-4)GlcNAc(b1-2)[Gal(b1-4)GlcNAc(b1-6)]Man(a1-6)[GlcNAc(b1-4)][Gal(b1-4)GlcNAc(b1-2)Man(a1-3)]Man(b1-4)GlcNAc(b1-4)GlcNAc
# How it was run: as §1
# [20] = target: Gal(b1-4)GlcNAc(b1-2)[Gal(b1-4)GlcNAc(b1-6)]Man(a1-6)[GlcNAc(b1-4)][Gal(b1-4)GlcNAc(b1-2)[Gal(b1-4)GlcNAc(b1-4)]Man(a1-3)]Man(b1-4)GlcNAc(b1-4)[Fuc(a1-6)]GlcNAc
# How it was run: as §1
# [21] = target: Gal(b1-4)GlcNAc(b1-3)Gal(b1-3)GalNAc
# How it was run: as §1
# [22] = target: Gal(b1-4)GlcNAc(b1-3)Gal(b1-3)GlcNAc
# How it was run: as §1
# [23] = target: Gal(b1-4)GlcNAc(b1-3)Gal(b1-4)Glc
# How it was run: as §1
# [24] = target: Gal(b1-4)GlcNAc(b1-3)Gal(b1-4)GlcNAc
# How it was run: as §1
# [25] = target: Gal(b1-4)GlcNAc(b1-3)Gal(b1-4)GlcNAc(b1-2)Man(a1-3)[Gal(b1-4)GlcNAc(b1-3)Gal(b1-4)GlcNAc(b1-2)Man(a1-6)]Man(b1-4)GlcNAc(b1-4)GlcNAc
# How it was run: as §1
# [26] = target: Gal(b1-4)GlcNAc(b1-3)Gal(b1-4)GlcNAc(b1-2)Man(a1-3)[Gal(b1-4)GlcNAc(b1-3)Gal(b1-4)GlcNAc(b1-2)Man(a1-6)]Man(b1-4)GlcNAc(b1-4)[Fuc(a1-6)]GlcNAc
# How it was run: as §1
# [27] = target: Gal(b1-4)GlcNAc(b1-3)Gal(b1-4)GlcNAc(b1-2)[Gal(b1-4)GlcNAc(b1-3)Gal(b1-4)GlcNAc(b1-6)]Man(a1-6)[Gal(b1-4)GlcNAc(b1-3)Gal(b1-4)GlcNAc(b1-2)Man(a1-3)]Man(b1-4)GlcNAc(b1-4)GlcNAc
# How it was run: as §1
# [28] = target: Gal(b1-4)GlcNAc(b1-3)Gal(b1-4)GlcNAc(b1-2)[Gal(b1-4)GlcNAc(b1-3)Gal(b1-4)GlcNAc(b1-6)]Man(a1-6)[Gal(b1-4)GlcNAc(b1-3)Gal(b1-4)GlcNAc(b1-2)Man(a1-3)]Man(b1-4)GlcNAc(b1-4)[Fuc(a1-6)]GlcNAc
# How it was run: as §1
# [29] = target: Gal(b1-4)GlcNAc(b1-3)Gal(b1-4)GlcNAc(b1-3)Gal(b1-4)GlcNAc
# How it was run: as §1
# [30] = target: Gal(b1-4)GlcNAc(b1-3)Gal(b1-4)GlcNAc(b1-3)Gal(b1-4)GlcNAc(b1-2)Man(a1-3)[Gal(b1-4)GlcNAc(b1-3)Gal(b1-4)GlcNAc(b1-3)Gal(b1-4)GlcNAc(b1-2)Man(a1-6)]Man(b1-4)GlcNAc(b1-4)GlcNAc
# How it was run: as §1
# [31] = target: Gal(b1-4)GlcNAc(b1-3)Gal(b1-4)GlcNAc(b1-3)Gal(b1-4)GlcNAc(b1-2)Man(a1-3)[Gal(b1-4)GlcNAc(b1-3)Gal(b1-4)GlcNAc(b1-3)Gal(b1-4)GlcNAc(b1-2)Man(a1-6)]Man(b1-4)GlcNAc(b1-4)[Fuc(a1-6)]GlcNAc
# How it was run: as §1
# [32] = target: Gal(b1-4)GlcNAc(b1-3)Gal(b1-4)GlcNAc(b1-3)Gal(b1-4)GlcNAc(b1-2)[Gal(b1-4)GlcNAc(b1-3)Gal(b1-4)GlcNAc(b1-3)Gal(b1-4)GlcNAc(b1-6)]Man(a1-6)[Gal(b1-4)GlcNAc(b1-3)Gal(b1-4)GlcNAc(b1-3)Gal(b1-4)GlcNAc(b1-2)Man(a1-3)]Man(b1-4)GlcNAc(b1-4)[Fuc(a1-6)]GlcNAc
# How it was run: as §1
# [33] = target: Gal(b1-4)GlcNAc(b1-3)Gal(b1-4)GlcNAc(b1-3)Gal(b1-4)GlcNAc(b1-3)Gal(b1-4)GlcNAc(b1-2)Man(a1-3)[Gal(b1-4)GlcNAc(b1-3)Gal(b1-4)GlcNAc(b1-3)Gal(b1-4)GlcNAc(b1-3)Gal(b1-4)GlcNAc(b1-2)Man(a1-6)]Man(b1-4)GlcNAc(b1-4)GlcNAc
# How it was run: as §1
binder,measurement,setting,value
B1,glycan array binding signal (z-score),Gal(b1-4)Glc,-0.577
same,glycan array binding signal (z-score),Gal(b1-4)Glc6S,2.34
same,glycan array binding signal (z-score),Gal(b1-4)GlcNAc,-0.131
same,glycan array binding signal (z-score),[1],-0.505
same,glycan array binding signal (z-score),Gal(b1-4)GlcNAc(b1-2)Man,0.558
same,glycan array binding signal (z-score),[2],0.202
same,glycan array binding signal (z-score),[3],-0.342
same,glycan array binding signal (z-score),[4],0.975
same,glycan array binding signal (z-score),[5],0.619
same,glycan array binding signal (z-score),[6],0.192
same,glycan array binding signal (z-score),[7],-0.7
same,glycan array binding signal (z-score),[8],-0.47
same,glycan array binding signal (z-score),[9],0.371
same,glycan array binding signal (z-score),[10],0.698
same,glycan array binding signal (z-score),[11],0.284
same,glycan array binding signal (z-score),[12],1.74
same,glycan array binding signal (z-score),[13],0.432
same,glycan array binding signal (z-score),[14],-0.476
same,glycan array binding signal (z-score),[15],0.403
same,glycan array binding signal (z-score),[16],0.292
same,glycan array binding signal (z-score),[17],-0.364
same,glycan array binding signal (z-score),[18],-0.133
same,glycan array binding signal (z-score),[19],0.819
same,glycan array binding signal (z-score),[20],-0.182
same,glycan array binding signal (z-score),[21],-0.595
same,glycan array binding signal (z-score),[22],-0.209
same,glycan array binding signal (z-score),[23],0.607
same,glycan array binding signal (z-score),[24],0.003
same,glycan array binding signal (z-score),[25],-0.281
same,glycan array binding signal (z-score),[26],0.635
same,glycan array binding signal (z-score),[27],2.49
same,glycan array binding signal (z-score),[28],2.82
same,glycan array binding signal (z-score),[29],0.584
same,glycan array binding signal (z-score),[30],0.809
same,glycan array binding signal (z-score),[31],0.542
same,glycan array binding signal (z-score),[32],3.25
same,glycan array binding signal (z-score),[33],0.65

# Fetched one by one from the entries so far:
binder,measurement,setting,value
B1,glycan array binding signal (z-score),[14],-0.476
same,glycan array binding signal (z-score),Gal(b1-4)Glc6S,2.34
